# These are yes or no findings as the source states them, for the method shown. For part of these data: In cells and extracts the contact can be indirect. Some results given as binding are weak or reduced against the parent protein; the word gives no strength.
# Chains of the proteins cited; added tags and fusions are not shown. Lines headed by an entry give the natural chain unless they say otherwise; changes in a name come on top. A line that says so, or that is headed by a name, gives the form on record, which may keep a tag or linker.
# UniProt Q07812: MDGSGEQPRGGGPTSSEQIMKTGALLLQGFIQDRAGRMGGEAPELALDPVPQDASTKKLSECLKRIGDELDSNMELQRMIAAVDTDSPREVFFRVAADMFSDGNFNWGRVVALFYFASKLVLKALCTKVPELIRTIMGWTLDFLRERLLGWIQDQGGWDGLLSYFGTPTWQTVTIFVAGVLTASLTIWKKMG
# GFP-Bax 63–65 A (Q07812, form named): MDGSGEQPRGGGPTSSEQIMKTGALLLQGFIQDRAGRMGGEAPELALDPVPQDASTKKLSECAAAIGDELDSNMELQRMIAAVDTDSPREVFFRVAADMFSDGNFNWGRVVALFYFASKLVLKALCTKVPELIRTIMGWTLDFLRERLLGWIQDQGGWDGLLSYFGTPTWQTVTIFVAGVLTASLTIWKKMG
# Columns and labels:
# [1] = molecular target: GB-mini-nesprin-2G (UniProt Q6ZWQ0); assay: dimerization-dependent fluorescent protein exchange (ddFPX); live Bax/Bak DKO U2OS cells transfected with RA-Bax, GB-mini-nesprin-2G and mito-BFP, untreated or with 20 µM Q-VD-OPH; confocal imaging 24 h after transfection, 37 °C
# [2] = molecular target: nesprin-2-Giant (mouse (endogenous in MEFs)) (UniProt Q6ZWQ0); assay: proximity ligation; Duolink PLA in fixed Bax/Bak DKO MEFs transiently transfected, with Q-VD-OPH; anti-Bax 6A7 (GFP-Bax, FLAG-Bax) or anti-His (His-Bax) with anti-nesprin-2G or pan anti-nesprin-2 K2 Ab; dots normalised to cell size, relative to control-transfected cells
# [3] = molecular target: GFP-mini-nesprin-2G (UniProt Q6ZWQ0); assay: as above
# [4] = molecular target: nesprin-2 (multiple isoforms, detected by pan anti-nesprin-2 antibodies) (mouse (endogenous in MEFs)) (UniProt Q6ZWQ0); assay: as above
# [5] = molecular target: nesprin-2G (endogenous in human U2OS and HCT116 cells) (human (endogenous in U2OS and HCT116)) (UniProt Q8WXH0); assay: proximity ligation; Duolink PLA in Bax/Bak DKO U2OS and HCT116 cells transiently transfected with GFP or GFP-Bax; transfected Bax against endogenous nesprin-2G
# [6] = molecular target: nesprin-2 (multiple isoforms, detected by pan anti-nesprin-2 antibodies) (mouse (endogenous in MEFs)) (UniProt Q6ZWQ0); assay: proximity ligation; Duolink PLA in fixed Bax/Bak C16 DKO MEFs; Bax induced with doxycycline 24 h, then untreated or 25 µM cisplatin (24 h) or 100 nM staurosporine (17 h) with Q-VD-OPH; anti-Bax 6A7 with anti-nesprin-2 MBS or anti-nesprin-2G Ab
# [7] = molecular target: nesprin-2-Giant (mouse (endogenous in MEFs)) (UniProt Q6ZWQ0); assay: as above
# [8] = molecular target: nesprin-2 (multiple isoforms, detected by pan anti-nesprin-2 antibodies) (mouse (endogenous in MEFs)) (UniProt Q6ZWQ0); assay: co-IP; C16 DKO MEF lysates (20 mM Tris pH 7.5, 5 mM EDTA, 5 mM EGTA, 100 mM NaCl, 1% CHAPS); IP with pan anti-nesprin-2 Ab (Santa Cruz) on anti-rabbit IgG-agarose, 18 h at 4 °C; blot with anti-HA; cells untreated, doxycycline, or doxycycline then 25 µM cisplatin with Q-VD-OPH
substance,measurement,setting,value
RA-Bax (from UniProt Q07812 1-192),binding,[1],binds
GFP-Bax 63–65 A (from UniProt Q07812 1-192),binding,[2],binds
FLAG-Bax (from UniProt Q07812 1-192),binding,[3],binds
GFP-Bax L63E (from UniProt Q07812 1-192),binding,[2],binds
His-Bax (from UniProt Q07812 2-192),binding,[4],binds
same,binding,[2],binds
GFP-Bax (from UniProt Q07812 1-192),binding,[2],binds
same,binding,[5],binds
GFP-Bax S184V (from UniProt Q07812 1-192),binding,[2],binds
HA-Bax (from UniProt Q07812 1-192),binding,[6],binds
same,binding,[7],binds
same,binding,[8],binds

# From PMC7501853
